Some of the results follow.
Tests used:
Assay in all cases: glycan array binding signal (z-score within array); higher = stronger binding
Conditions in all cases: glycan notation: IUPAC condensed, linker removed
[1] = target: Neu5Ac(a2-6)Gal(b1-4)GlcNAc(b1-2)Man(a1-3)[Man(a1-6)]Man(b1-4)GlcNAc(b1-4)GlcNAc
Summary of the method: (§1)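 From the Consortium for Functional Glycomics database, 3228 arrays were curated, keeping only those whose protein sequence was available. Binding is given as a within-array Z-score averaged across arrays sharing a protein sequence and across linkers. Negative Z-scores can be read as non-binding.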

[2] = target: Neu5Ac(a2-6)Gal(b1-4)GlcNAc(b1-2)Man(a1-3)[Neu5Ac(a2-3)Gal(b1-4)GlcNAc(b1-2)Man(a1-6)]Man(b1-4)GlcNAc(b1-4)GlcNAc
Summary of the method: as §1

[3] = target: Neu5Ac(a2-6)Gal(b1-4)GlcNAc(b1-2)Man(a1-3)[Neu5Ac(a2-6)Gal(b1-4)GlcNAc(b1-2)Man(a1-6)]Man(b1-4)GlcNAc(b1-4)GlcNAc
Summary of the method: as §1

[4] = target: Neu5Ac(a2-6)Gal(b1-4)GlcNAc(b1-2)Man(a1-3)[Neu5Ac(a2-6)Gal(b1-4)GlcNAc(b1-2)Man(a1-6)]Man(b1-4)GlcNAc(b1-4)[Fuc(a1-6)]GlcNAc
Summary of the method: as §1

[5] = target: Neu5Ac(a2-6)Gal(b1-4)GlcNAc(b1-2)Man(a1-6)Man(b1-4)GlcNAc(b1-4)GlcNAc
Summary of the method: as §1

[6] = target: Neu5Ac(a2-6)Gal(b1-4)GlcNAc(b1-2)Man(a1-6)[Gal(b1-4)GlcNAc(b1-2)Man(a1-3)]Man(b1-4)GlcNAc(b1-4)GlcNAc
Summary of the method: as §1

[7] = target: Neu5Ac(a2-6)Gal(b1-4)GlcNAc(b1-2)Man(a1-6)[GlcNAc(b1-2)Man(a1-3)]Man(b1-4)GlcNAc(b1-4)GlcNAc
Summary of the method: as §1

[8] = target: Neu5Ac(a2-6)Gal(b1-4)GlcNAc(b1-2)Man(a1-6)[Man(a1-3)]Man(b1-4)GlcNAc(b1-4)GlcNAc
Summary of the method: as §1

[9] = target: Neu5Ac(a2-6)Gal(b1-4)GlcNAc(b1-2)[Neu5Ac(a2-6)Gal(b1-4)GlcNAc(b1-4)]Man(a1-3)[GlcNAc(b1-4)][Neu5Ac(a2-6)Gal(b1-4)GlcNAc(b1-2)[Neu5Ac(a2-6)Gal(b1-4)GlcNAc(b1-6)]Man(a1-6)]Man(b1-4)GlcNAc(b1-4)GlcNAc
Summary of the method: as §1

[10] = target: Neu5Ac(a2-6)Gal(b1-4)GlcNAc(b1-2)[Neu5Ac(a2-6)Gal(b1-4)GlcNAc(b1-4)]Man(a1-3)[GlcNAc(b1-4)][Neu5Ac(a2-6)Gal(b1-4)GlcNAc(b1-4)Man(a1-6)]Man(b1-4)GlcNAc(b1-4)GlcNAc
Summary of the method: as §1

[11] = target: Neu5Ac(a2-6)Gal(b1-4)GlcNAc(b1-2)[Neu5Ac(a2-6)Gal(b1-4)GlcNAc(b1-6)]Man(a1-6)[Neu5Ac(a2-6)Gal(b1-4)GlcNAc(b1-2)Man(a1-3)][GlcNAc(b1-4)]Man(b1-4)GlcNAc(b1-4)GlcNAc
Summary of the method: as §1

[12] = target: Neu5Ac(a2-6)Gal(b1-4)GlcNAc(b1-3)Gal(b1-3)GlcNAc
Summary of the method: as §1

[13] = target: Neu5Ac(a2-6)Gal(b1-4)GlcNAc(b1-3)Gal(b1-4)GlcNAc
Summary of the method: as §1

[14] = target: Neu5Ac(a2-6)Gal(b1-4)GlcNAc(b1-3)Gal(b1-4)GlcNAc(b1-2)Man(a1-3)[Neu5Ac(a2-6)Gal(b1-4)GlcNAc(b1-3)Gal(b1-4)GlcNAc(b1-2)Man(a1-6)]GalNAc
Summary of the method: as §1

[15] = target: Neu5Ac(a2-6)Gal(b1-4)GlcNAc(b1-3)Gal(b1-4)GlcNAc(b1-3)Gal(b1-4)GlcNAc
Summary of the method: as §1

[16] = target: Neu5Ac(a2-6)Gal(b1-4)GlcNAc(b1-3)Gal(b1-4)GlcNAc(b1-3)Gal(b1-4)GlcNAc(b1-2)Man(a1-3)[Neu5Ac(a2-6)Gal(b1-4)GlcNAc(b1-3)Gal(b1-4)GlcNAc(b1-3)Gal(b1-4)GlcNAc(b1-2)Man(a1-6)]GalNAc
Summary of the method: as §1

[17] = target: Neu5Ac(a2-6)Gal(b1-4)GlcNAc(b1-3)Gal(b1-4)GlcNAc(b1-3)GalNAc
Summary of the method: as §1

[18] = target: Neu5Ac(a2-6)Gal(b1-4)GlcNAc(b1-3)Gal(b1-4)GlcNAc(b1-3)[Neu5Ac(a2-6)Gal(b1-4)GlcNAc(b1-3)Gal(b1-4)GlcNAc(b1-6)]GalNAc
Summary of the method: as §1

[19] = target: Neu5Ac(a2-6)Gal(b1-4)GlcNAc(b1-3)Gal(b1-4)GlcNAc(b1-6)[Gal(b1-3)]GalNAc
Summary of the method: as §1

[20] = target: Neu5Ac(a2-6)Gal(b1-4)GlcNAc(b1-3)Gal(b1-4)[Fuc(a1-3)]GlcNAc(b1-3)Gal(b1-4)[Fuc(a1-3)]GlcNAc
Summary of the method: as §1

[21] = target: Neu5Ac(a2-6)Gal(b1-4)GlcNAc(b1-3)GalNAc
Summary of the method: as §1

[22] = target: Neu5Ac(a2-6)Gal(b1-4)GlcNAc(b1-3)[Neu5Ac(a2-6)Gal(b1-4)GlcNAc(b1-6)]GalNAc
Summary of the method: as §1

[23] = target: Neu5Ac(a2-6)Gal(b1-4)GlcNAc(b1-6)GalNAc
Summary of the method: as §1

[24] = target: Neu5Ac(a2-6)Gal(b1-4)GlcNAc(b1-6)[Gal(b1-3)GlcNAc(b1-3)]Gal(b1-4)Glc
Summary of the method: as §1

[25] = target: Neu5Ac(a2-6)Gal(b1-4)GlcNAc(b1-6)[Gal(b1-3)]GalNAc
Summary of the method: as §1

[26] = target: Neu5Ac(a2-6)Gal(b1-4)GlcNAc6S
Summary of the method: as §1

Neu5Ac(a2-6)GalNAc = target: Neu5Ac(a2-6)GalNAc
Summary of the method: as §1

[27] = target: Neu5Ac(a2-6)GalNAc(b1-4)GlcNAc
Summary of the method: as §1

[28] = target: Neu5Ac(a2-6)GalNAc(b1-4)GlcNAc6S
Summary of the method: as §1

[29] = target: Neu5Ac(a2-6)GlcNAc(b1-4)GlcNAc
Summary of the method: as §1

[30] = target: Neu5Ac(a2-6)GlcNAc(b1-4)GlcNAc(b1-4)GlcNAc
Summary of the method: as §1

B1: Sp8391B-bot-388-20-388 (Bacteroides ovatus) (protein)
chain: GCQNNDENEQHYDNKLFISASNFTKEILFKAGDTNVETGLSVAIAKPEEHDIKVTMSPAPELLSTYKLAYYDETAVLLSEEHYSMPETSTTIKSGSIVSPELPIEFINTGELDIKTTYVLPVTIKSVEGIGVLQSAKTYYYVFRGASLINVVCNISRNRAYPDFKNDSKFNNLTENTMEILFKANSFPNTLNTLMGIESNYLLRIGDATIPNNQLQVATSVNNCTSADLQLESGKWYHVAVAFNKGNVKVYINGVEKLSGSTGKSSVSLGAKHTNEEDGSRCFWVGYSYKDDRYFDGVVSEVRIWNRALTAEEIQATNHFYTIEPESEGLIAYWKFDEGSGTVAKDYSVSGYDLTIEKEPKWESVSLPQ
glycan array binding signal (z-score) [1]: -0.91 | glycan array binding signal (z-score) [2]: -0.382 | glycan array binding signal (z-score) [3]: 0.054 | glycan array binding signal (z-score) [4]: -0.262 | glycan array binding signal (z-score) [5]: -0.801 | glycan array binding signal (z-score) [6]: 0.613 | glycan array binding signal (z-score) [7]: -0.638 | glycan array binding signal (z-score) [8]: 0.075 | glycan array binding signal (z-score) [9]: 2.53 | glycan array binding signal (z-score) [10]: -0.474 | glycan array binding signal (z-score) [11]: -0.563 | glycan array binding signal (z-score) [12]: -0.346 | glycan array binding signal (z-score) [13]: -0.321 | glycan array binding signal (z-score) [14]: 0.609 | glycan array binding signal (z-score) [15]: -0.019 | glycan array binding signal (z-score) [16]: 1.56 | glycan array binding signal (z-score) [17]: -0.164 | glycan array binding signal (z-score) [18]: -0.372 | glycan array binding signal (z-score) [19]: -0.24 | glycan array binding signal (z-score) [20]: 0.703 | glycan array binding signal (z-score) [21]: -0.107 | glycan array binding signal (z-score) [22]: -0.507 | glycan array binding signal (z-score) [23]: 0.333 | glycan array binding signal (z-score) [24]: -0.328 | glycan array binding signal (z-score) [25]: -0.211 | glycan array binding signal (z-score) [26]: 1.55 | glycan array binding signal (z-score) (Neu5Ac(a2-6)GalNAc): -0.776 | glycan array binding signal (z-score) [27]: 0.179 | glycan array binding signal (z-score) [28]: -0.019 | glycan array binding signal (z-score) [29]: -1.06 | glycan array binding signal (z-score) [30]: 0.064
